In patent US7098367B2, “Process for the preparation of alkylene glycols” (Saudi Basic Industries Corporation, priority 2004, dated 2006):

assay: Catalytic hydration of ethylene oxide to monoethylene glycol (MultiClave, GC analysis); conditions: catalyst in 2 or 5 ml deionized water, EO:water feed, 250 psig carbon dioxide, 100° C., 10 hours, G.C.

Question: Which “selectivity to MEG” value does the source give for CN(C)c1ccccc1 [Comparative 1, Dimethylaniline, reference compound] here?
Answer: The value was 88%.

Question: With NC(=O)NC12CC3CC(CC(C3)C1)C2 [Comparative 3, N-(1-adamantyl)urea, reference compound] as the compound, how does the “selectivity to MEG” value read?
Answer: Its value is 90%.

Question: For c1cnc2c(c1)ccc1cccnc12 [Comparative 4, 1,10-phenathroline (PHEN), reference compound], which “selectivity to MEG” value is on record?
Answer: The value was 90%.

Question: With NCCN [Example 1, Ethylenediamine (EDA)] as the compound, how does the “selectivity to MEG” value read?
Answer: Its value is 92%.

Question: With C1CCCNCC1 [Example 3, Hexamethyleneimine] as the compound, how does the “selectivity to MEG” value read?
Answer: The value was 93%.

Question: For C1CNCCNCCNCCN1 [Example 4, 1,4,7,10-tetraazacyclododecane (Cyclen)], which “selectivity to MEG” value is on record?
Answer: Its value is 92%.

Question: With C1CN2CCN1CC2 [Example 5, 1,4-diazabicyclo[2,2,2]octane (DABCO)] as the compound, how does the “selectivity to MEG” value read?
Answer: Its value is 96%.

Question: With NCCCN [Example 6, 1,3-diaminopropane (DAP)] as the compound, how does the “selectivity to MEG” value read?
Answer: The value was 95%.

Question: Which “selectivity to MEG” value does the source give for CN(CCCN)CCCN [Example 7, 3,3′-diamino-N-methyldipropylamine] here?
Answer: Its value is about 94%.

Question: For NCCCNCCNCCCN [Example 8, 1,5,8,12-tetroazadodecane], which “selectivity to MEG” value is on record?
Answer: Its value is 93%.

Question: Which “selectivity to MEG” value does the source give for CN(C)c1ccccn1 [Example 10, 2-dimethylaminopyridine (2-DMAP)] here?
Answer: The value was 92%.

Question: With CN(C)CCN(C)C [Example 12, Tetramethylethylenediamine (TMEDA)] as the compound, how does the “selectivity to MEG” value read?
Answer: Its value is 95%.
